# From patent US20040043442A1, “Use of betaine in functional products having blood pressure lowering effects” (Finnfeeds Finland Oy, priority 2001, published 2004)
# Experiments:
# [1] = Body weight and BMI in the intervention study; assay type: in vivo, human
# Text: (§1) The effects of betaine supplementation on blood pressure, and in addition on body weight, body composition, resting energy expenditure, and concentrations of serum total and lipoprotein lipids and plasma homocysteine in humans, were studied. The participants were healthy, obese adults with normal blood pressure.
# (§2) Forty-two subjects (14 males, 28 females) without any chronic disease and with normal liver, kidney and thyroid function participated in the study. The inclusion criteria for body mass index (BMI) was 28-40 kg/m^2 and for age 25-60 years. Serum concentration of total triglycerides had to be <3.5 mmol/l and that of total cholesterol <7.5 mmol/l. Inclusion criteria for fasting concentration of plasma glucose was <6.7 mmol/l. Subjects with lipid lowering medication were excluded as well women with perimenopause. Four women were postmenopausal in the control group and 6 were postmenopausal in the betaine group. None of the participants were on a medication for hypertension.
# The study was a controlled, randomized double-blinded parallel study. […] Grapefruit juice was added to simulate the bitter taste of betaine. The subjects were on their regular eucaloric diet during this period. For the intervention period with a hypocaloric (−2100 kJ or −500 kcal) diet the subjects were randomly assigned in two groups (20 for the control group, 22 for the betaine group). The subjects were matched for BMI, gender and menstrual cycle.
# The control group consumed orange juice 1 dl twice a day and the betaine group consumed betaine enriched orange juice 1 dl twice a day. The amount of betaine was 3 g per 1 dl orange juice, giving a daily betaine dose of 6 g.
# Body weight was measured using the same calibrated electronic scale throughout the study. Body composition was measured by a bioelectric impedance (BIA 101S with Bodygram software, Akern S.r.I. Biosearch, Italy).
# folate = experiment: Folate concentration of plasma and erythrocytes (fluorescence polarization immunometric Imx-method); assay type: in vivo, human; settings: betaine group
# Text: as §1, §2
# The study was a controlled, randomized double-blinded parallel study. […] Grapefruit juice was added to simulate the bitter taste of betaine. The subjects were on their regular eucaloric diet during this period. […]
# Folate concentration of plasma and erythrocytes was determined by the fluorescence polarization immunometric Imx-method (Abbott Laboratories, IL).
smiles,measurement,setting,value
"C[N+](C)(C)CC(=O)[O-] [Betaine, trimethylglycine]",Body weight,"[1]; 4 wk (beginning of intervention period), betaine group",95.7 ± 11.3 kg
same,Change in BMI in the intervention period,"[1]; 12-week intervention, betaine 6 g daily, P=0.230 vs control group",−0.7 ± 1.1 kg/m^2
same,Change in body weight in the intervention period,"[1]; 12-week intervention, betaine 6 g daily, P=0.303 vs control group",-2.2 ± 3.2 kg
same,Body weight,"[1]; 16 wk (end of intervention period), betaine 6 g daily, hypocaloric diet, P=0.004 vs 4 wk",93.5 ± 11.1 kg
same,Changes in body weight and BMI compared between the groups (result in words),"[1]; betaine group vs control group, intervention period",no significant differences were found
same,Folate concentration in erythrocytes (result in words),folate; P=0.024,decreased significantly
same,Fasting plasma folate concentration (result in words),folate; during the study,did not change
